Test results taken from patent US6537804B1 (Board of Regents, The University of Texas Systems, priority 1995, dated 2003).

Test: general procedure: Boc solid-phase peptide synthesis
Settings: whole synthesis, sequence analysis or HPLC

## 350-SSRVpS*PSPTTYRMFRDK-366 (SSRVSPSPTTYRMFRDK; phosphoserine 354)
  final purity (method not given): about 95% purity
